Some of these results come from one statement about several compounds together.
Molecular target: KDR (Homo sapiens, UniProt P35968)
Assay: Inhibition of VEGF-induced KDR receptor activation (phosphorylation) in HUVECs
Format: cell-based
Set-up: host or cells: HUVEC
Conditions: 10 nM

Amino acid sequences for entries named in this document (tags omitted). Residues count along the entry.
UniProt P35968, 20-1356: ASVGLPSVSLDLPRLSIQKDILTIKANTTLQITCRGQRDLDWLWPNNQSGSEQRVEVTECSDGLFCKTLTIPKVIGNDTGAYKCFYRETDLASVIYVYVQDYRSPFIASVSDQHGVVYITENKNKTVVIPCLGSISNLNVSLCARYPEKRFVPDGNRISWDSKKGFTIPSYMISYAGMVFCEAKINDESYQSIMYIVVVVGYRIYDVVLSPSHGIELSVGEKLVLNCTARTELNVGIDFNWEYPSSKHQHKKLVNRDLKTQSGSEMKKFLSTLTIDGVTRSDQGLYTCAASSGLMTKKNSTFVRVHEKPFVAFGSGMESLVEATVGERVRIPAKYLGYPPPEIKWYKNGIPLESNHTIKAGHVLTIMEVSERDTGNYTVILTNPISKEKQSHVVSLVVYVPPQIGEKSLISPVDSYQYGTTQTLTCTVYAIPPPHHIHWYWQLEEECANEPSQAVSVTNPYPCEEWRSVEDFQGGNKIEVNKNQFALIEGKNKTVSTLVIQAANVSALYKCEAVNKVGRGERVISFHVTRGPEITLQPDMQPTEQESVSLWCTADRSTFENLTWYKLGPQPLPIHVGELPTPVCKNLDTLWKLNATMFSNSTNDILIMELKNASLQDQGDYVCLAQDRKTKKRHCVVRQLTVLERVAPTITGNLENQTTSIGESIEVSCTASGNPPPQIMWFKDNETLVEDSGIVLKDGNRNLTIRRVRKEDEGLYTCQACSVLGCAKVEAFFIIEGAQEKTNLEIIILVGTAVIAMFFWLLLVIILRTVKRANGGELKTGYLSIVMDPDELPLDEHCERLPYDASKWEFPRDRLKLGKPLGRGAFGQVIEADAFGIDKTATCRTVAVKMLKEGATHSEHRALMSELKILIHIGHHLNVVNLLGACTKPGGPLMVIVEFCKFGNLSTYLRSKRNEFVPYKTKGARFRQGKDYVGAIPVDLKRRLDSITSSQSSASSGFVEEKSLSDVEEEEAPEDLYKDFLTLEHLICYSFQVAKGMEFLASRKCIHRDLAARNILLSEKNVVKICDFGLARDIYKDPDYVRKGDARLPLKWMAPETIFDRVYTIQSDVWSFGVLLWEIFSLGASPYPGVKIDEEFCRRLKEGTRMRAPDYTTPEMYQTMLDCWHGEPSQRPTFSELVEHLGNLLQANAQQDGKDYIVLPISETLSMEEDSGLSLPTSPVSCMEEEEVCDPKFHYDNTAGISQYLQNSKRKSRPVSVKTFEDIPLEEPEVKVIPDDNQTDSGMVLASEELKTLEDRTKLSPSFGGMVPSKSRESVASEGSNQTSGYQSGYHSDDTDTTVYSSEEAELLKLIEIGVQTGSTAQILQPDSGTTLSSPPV

Sequence	Inhibition of VEGF-induced KDR phosphorylation by tetrameric complexes of biotinylated derivatives [%]
GDSRVCWEDSWGGEVCFRYDPGGGK [SEQ ID NO:294]	≥ 50
AGPTWCEDDWYYCWLFGTGGGK [SEQ ID NO:277]	≥ 50
